These are yes or no findings as the source states them, for the method shown. For some of these results: Binding can be weak; no strength is given. Where a sequence is shown, tags or fusion partners need not be part of it. For some of these results: In cells and extracts the contact can be indirect.
B1: His-Cdk8-N (AA1-262) (domain or fragment, UniProt Q9VT57 1-262)
chain: MDYDFKMKTQIERTKVEDLFNYEGCKVGRGTYGHVYKAKWKETSDGKEYALKQIDGTGLSMSACREIALLRELKHQNVITLIRVFLSHNDRKVFLLIDYAEHDLWHIIKFHRAAKATKKQVVVPRGMVKSLLYQILDGIHYLHSNWVLHRDLKPANILVMGDGNERGRVKIADMGFARLFNAPLKPLADLDPVVVTFWYRAPELLLGARHYTKAIDIWAIGCIFAELLTSEPIFHCRQEDIKTSNPYHHDQLDRIFNVMGFP
B2: His-tagged full-length Drosophila MED15 protein (protein, UniProt Q9Y149 1-749)
chain: MTEDWQSQKFRQNVISKIHDLLPPNAQDQTKNAGVMENHIFRKSRTKDEYLGLVAKLFMHYKDMSRKSQQQQQQQQQQGGPPPNAEMGGGQNMMQDPLNALQNLASQGNRNPQMMPMGAGGGAPVPGGPGTASNLLQSLNQQRPGQQQMQPMSNIRGQMPMGAGGAGAQQMMQVQQMQQGGNAPGVMNVMGAGGGQNQGQIVGNPGQQMGVGVGMPNQMVGPGPNSGPAVGGAGGPNAAPGAGGPGPNQMQGGPMNVNAMQQMPPMQQIQQNQLGMGMNPMMRMGQGNGMGGPQGMPGQGMQGMPQGPHNVVGGPAGQQQVGGAGLPPNAVQQGGMNPMGGMGVNMPPNLQQKPNMPMGQAGQMFPGNRGGVGVGGQQPGQPFMRSSPSPADAQQLQQQAQLQQMQQQQQQLVVGNQTPTQQPPTPQMPTPNMIPSPALVPQSSPQMMQMQNSQRNIRQQSPSASINTPGQVTGNSPFNPQEEALYREKYKQLTKYIEPLKRMLAKISNDGTNVEKMTKMSKLLEILCNPTQRVPLETLLKCEKALEKMDLISYSGQQFGKSSNPLLEVINTTLQSPVANHTLYRTFRPTLELLFGTDITAPVPAKRPRVEEKSTSFEQEVPHVLQGEIARLDTKFKVKLDTTSQINNKAIRLICCLDDKRLPSVPPVSVSVPEEYPWQAPDCSLAEQEYSATPFLQTVQQALIARISKLPKNYSLSHLLDTWEMAVRQACSPQSKPRAVCELSTLLGV
B3: MED15 (full length) fused to the GAL4 activation domain (prey) (protein, UniProt Q9Y149 1-749)
chain: B2 chain

Legend:
[1] = target: GST-SREBP-1 (AA1-250) (Drosophila); test: pull-down; GST pull-down: GST-SREBP fragments as bait, His-tagged Cdk8 (AA1-262) or His-tagged MED15 as prey, read by Western blot; protocol as in Li et al., 2020; only the target purified
[2] = target: GST-SREBP-1-A (AA1-100) (Drosophila); test: as above
[3] = target: GST-SREBP-1-A-1 (AA1-25) (Drosophila); test: as above
[4] = target: GST-SREBP-1-A-2 (AA1-50) (Drosophila); test: as above
[5] = target: GST-SREBP-1-A-3 (AA1-75) (Drosophila); test: as above
[6] = target: GST-SREBP-1-A-3 (AA1-75) with AA36-41 (DMLDII) mutated to six alanines (Drosophila); test: as above
[7] = target: GST-SREBP-1-B (AA51-200) (Drosophila); test: as above
[8] = target: GST-SREBP-1-C (AA151-250) (Drosophila); test: as above
[9] = target: GST-SREBP-2 (AA201-350, containing the bHLH-Zip domain) (Drosophila); test: as above
[10] = target: GST-SREBP-3 (AA301-451) (Drosophila); test: as above
[11] = target: SREBP AA1-50 fused to the GAL4 DNA-binding domain (bait) (Drosophila); test: two-hybrid; yeast two-hybrid in AH109; SREBP AA1-50 as GAL4 DNA-binding domain bait, Cdk8 or MED15 as GAL4 activation domain prey; SD/-Leu/-Trp/-His with 2.5, 5 or 10 mM 3-AT

Binder	binding [1]	binding [2]	binding [3]	binding [4]	binding [5]	binding [6]	binding [7]	binding [8]	binding [9]	binding [10]	binding [11]
B1	binds	binds	no binding	binds	binds	no binding	no binding	no binding	no binding	no binding	
B2					binds	no binding					
B3											binds
